This is one part of the list.

By UniProt entry, the sequences of proteins in these tests, tags left out.
UniProt Q0JBA9, entry or part of it: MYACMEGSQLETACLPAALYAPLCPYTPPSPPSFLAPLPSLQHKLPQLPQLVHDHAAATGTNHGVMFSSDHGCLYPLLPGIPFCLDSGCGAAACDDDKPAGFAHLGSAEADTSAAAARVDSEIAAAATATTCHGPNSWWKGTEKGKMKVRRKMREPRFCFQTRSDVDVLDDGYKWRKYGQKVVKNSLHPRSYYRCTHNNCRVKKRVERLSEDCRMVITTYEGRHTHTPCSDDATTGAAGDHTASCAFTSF

The target of the experiment is OsWRKY34 (Oryza sativa, UniProt Q0JBA9 1-250). Briefly: protein-binding microarray (RPBM); PBS, 2% BSA, 51.3 ng/ul salmon testes DNA, 50 uM zinc acetate, 200 nM TF, 25 C, 1 h; high values mean tight binding. To be noted: protein: recombinant; tags: N-terminal polyhistidine and DsRed monomer fusion (pET32a); label: CyDye5-dUTP incorporated in the synthesized complementary strand; 3' TTTTT single-stranded linker to array surface; dsDNA, one strand shown. An outline of the steps:
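Transcription factors were each fused at the N-terminus to a polyhistidine tag plus DsRed and expressed in E. coli BL21-CodonPlus before Ni–NTA purification. Binding to a double-stranded custom Agilent array was carried out with 200 nM protein at 25 °C for 1 h in PBS, 2% BSA, salmon testes DNA and 50 µM zinc acetate. The binding signal is per-feature fluorescence intensity, in arbitrary units, on an Axon 4000B scanner.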
Take “ACTGCCGCTACCCTCTCTTTAGTCCCGGTTATTTCACCTGCGGAGTCACCTAGTGCAG”: the binding signal was 8280 fluorescence intensity (a.u.).

As for “CCTGCTTGCTCTTTCGCTTTCCTCTCTGCATAGCTTGCAACGGAGTCACCTAGTGCAG”, the binding signal is 9070 fluorescence intensity (a.u.).

As for “TTCTAACTCACACGTGTACTTTTATATTTAATATATTTATCGGAGTCACCTAGTGCAG”, the binding signal was 8760 fluorescence intensity (a.u.).

“TAGCCAAACCGGCCCGCTCTTCTGATCCACATCCCGTCGACGGAGTCACCTAGTGCAG”: the binding signal is 9090 fluorescence intensity (a.u.).

Take “TAGCTGTTGCAATCGTCCCTATTTTCTTCCGTTTGGCCGTCGGAGTCACCTAGTGCAG”: the binding signal was 8300 fluorescence intensity (a.u.).

“ATACTTAAACATTCTTCATTCTTTGTACAATTCTGAAATTCGGAGTCACCTAGTGCAG”: the binding signal is 8450 fluorescence intensity (a.u.).

Regarding “GCAAACCACGCTACTACAAAACCATTATTGTAAACACATCCGGAGTCACCTAGTGCAG”, the binding signal is 8570 fluorescence intensity (a.u.).

With “CAGATCCACTGAAGGTCCGAATGCATTATGGCCATCCAGACGGAGTCACCTAGTGCAG”, the binding signal is 8130 fluorescence intensity (a.u.).

With “TTTTTTTACCTTTGCTGCAAAACAAGTTGTTCGTGTGTCGCGGAGTCACCTAGTGCAG”, the binding signal is 8750 fluorescence intensity (a.u.).

In the case of “ACACACACTCCCTCTCTCTTTCTGTACAGTGTCATTCCTTCGGAGTCACCTAGTGCAG”, the binding signal is 9330 fluorescence intensity (a.u.).

Turning to “CTTCACTCTGGTCGTGTTTCCGTTTGTTTTCCATCCCATTCGGAGTCACCTAGTGCAG”, the binding signal is 8920 fluorescence intensity (a.u.).

As to “TTTTGCTTCCGGTGATGTGGTGGTGCTCGGGCCTGTTATTCGGAGTCACCTAGTGCAG”, the binding signal was 13600 fluorescence intensity (a.u.).

Regarding “ACCACCACCACCCGCCGCCGCCTCCCTCTCTTTTATGCGTCGGAGTCACCTAGTGCAG”, the binding signal is 10900 fluorescence intensity (a.u.).

Take “GCCGCATCTTCCGCCGCCTCTGCTTCCGCCTCTGCCCTGGCGGAGTCACCTAGTGCAG”: the binding signal was 10500 fluorescence intensity (a.u.).

Regarding “CTTCTTCGTGATGCACCTTTTGCTTTACAGCGCTAGCAATCGGAGTCACCTAGTGCAG”, the binding signal is 8310 fluorescence intensity (a.u.).

“TGTTCAGTTCTACATCGCTTCTGACTCGCAATTTGGTTTCCGGAGTCACCTAGTGCAG”: the binding signal was 12400 fluorescence intensity (a.u.).

Turning to “ACACCATGTCACATCCAACTAGGCCCTCCTCCTCTTTGATCGGAGTCACCTAGTGCAG”, the binding signal was 8460 fluorescence intensity (a.u.).

For the sequence “ACTAGCATCTATAGTTGCTGCCATGTTCAAGGCCGTCCATCGGAGTCACCTAGTGCAG”, the binding signal was 8400 fluorescence intensity (a.u.).

In the case of “AAGGCAAACCCTGAGTTTCTGTGTCCAACTTTAACTGTCCCGGAGTCACCTAGTGCAG”, the binding signal is 8090 fluorescence intensity (a.u.).

For “CCCGCTGCCACCTCCGAGTCCACTTCTCGCCACCCTCTGCCGGAGTCACCTAGTGCAG”, the binding signal was 12700 fluorescence intensity (a.u.).

For “TATCTCTTTTTGGTATGGTCTGCAATTTATATGGTTTCTACGGAGTCACCTAGTGCAG”, the binding signal was 9500 fluorescence intensity (a.u.).

Take “TACTTTACCGTTCGCTTTACCCTCTCCATAGATGCAAACTCGGAGTCACCTAGTGCAG”: the binding signal is 9120 fluorescence intensity (a.u.).

Consider “TTATGCCAGCCATTTCACTTTTTCCCACGTTTTGTCATTTCGGAGTCACCTAGTGCAG”, for which the binding signal was 18900 fluorescence intensity (a.u.).

For the sequence “GAGTTGTTACTGATGTGGGTTTACTGAATTCTGTCAATACCGGAGTCACCTAGTGCAG”, the binding signal was 11100 fluorescence intensity (a.u.).

Regarding “CATTACCCTTTACTTGCAAATCAAGTCCAATTCATGTTTCCGGAGTCACCTAGTGCAG”, the binding signal was 9660 fluorescence intensity (a.u.).

“ACTCCATCAATTTTTCATTATGTCTGTGTTTGTCCTGACTCGGAGTCACCTAGTGCAG”: the binding signal was 14900 fluorescence intensity (a.u.).

On to “GCGTCAATTAGTGCCTCTCTCTGTATGCATTCTTCCTATTCGGAGTCACCTAGTGCAG”, for which the binding signal was 10300 fluorescence intensity (a.u.).

With “TATACCCTCACCATCCAATCAACTACTATTATTGTTTTCTCGGAGTCACCTAGTGCAG”, the binding signal is 8200 fluorescence intensity (a.u.).

As to “CCCATATAGGAGATATTTGTGTTTTGTTGATCGAGCCACCCGGAGTCACCTAGTGCAG”, the binding signal is 9370 fluorescence intensity (a.u.).

Take “TTTTGGTTGTTGTGATCCCTGTGGGGCTCGGGTTCCGGCCCGGAGTCACCTAGTGCAG”: the binding signal was 8150 fluorescence intensity (a.u.).

For “ACCTTTTCTTAAATTTCTCATGTTTTTCCCGTTGCAATGCCGGAGTCACCTAGTGCAG”, the binding signal is 9070 fluorescence intensity (a.u.).

On to “AGCATGCTCTAGGAGTTGGCTTTGCGTTGGTTCTGAGGGTCGGAGTCACCTAGTGCAG”, for which the binding signal is 8200 fluorescence intensity (a.u.).

In the case of “TACATTAAGTACCACACTCCAGGCCTCATCTTCTACTCCCCGGAGTCACCTAGTGCAG”, the binding signal is 8240 fluorescence intensity (a.u.).

With “ACGCGCTCAGACAAGCATCCTACCACTACTAGTCGCTATACGGAGTCACCTAGTGCAG”, the binding signal was 8080 fluorescence intensity (a.u.).

Consider “GCATCTGCGCTACATTCTCCATGGTGGGTCTTTTGCTTCTCGGAGTCACCTAGTGCAG”, for which the binding signal was 8070 fluorescence intensity (a.u.).

For “AGTACATTTATTTTGGGCTATTTATTTGTACACGTCAAGACGGAGTCACCTAGTGCAG”, the binding signal is 9940 fluorescence intensity (a.u.).

In the case of “CAATTGGCTCCTACCCGTTATCTTTGTGTTTCCATCCAGTCGGAGTCACCTAGTGCAG”, the binding signal is 9290 fluorescence intensity (a.u.).

Regarding “TTCTTTCCGTTGTGCTTGCTGCTTTTCTCTACTACCTTTTCGGAGTCACCTAGTGCAG”, the binding signal was 9900 fluorescence intensity (a.u.).

As to “CACCGGCTTCCCTCAATTTACCACTGGTCTCAGTGCTAGCCGGAGTCACCTAGTGCAG”, the binding signal was 9320 fluorescence intensity (a.u.).

Regarding “AAATTCCCGGGCTTTTTTTCTTTTGCTTGCTTCCTTTGCTCGGAGTCACCTAGTGCAG”, the binding signal is 10800 fluorescence intensity (a.u.).

For the sequence “CATAAACAGGAACACCATTGTCTGTATGTTACTTGTTTACCGGAGTCACCTAGTGCAG”, the binding signal was 8850 fluorescence intensity (a.u.).

Consider “GCTTCGTTGTACTAGGTCCTTTTAGATTATTTTTTTTATGCGGAGTCACCTAGTGCAG”, for which the binding signal was 10500 fluorescence intensity (a.u.).

For the origin of these results see article PMC7819943, “Rice protein-binding microarrays: a tool to detect cis-acting elements near promoter regions in rice”.
